Our source for the binding values is PMC7642293.

Protein sequences, listed by entry. Tags and fused reporters are not part of them.
UniProt Q92922: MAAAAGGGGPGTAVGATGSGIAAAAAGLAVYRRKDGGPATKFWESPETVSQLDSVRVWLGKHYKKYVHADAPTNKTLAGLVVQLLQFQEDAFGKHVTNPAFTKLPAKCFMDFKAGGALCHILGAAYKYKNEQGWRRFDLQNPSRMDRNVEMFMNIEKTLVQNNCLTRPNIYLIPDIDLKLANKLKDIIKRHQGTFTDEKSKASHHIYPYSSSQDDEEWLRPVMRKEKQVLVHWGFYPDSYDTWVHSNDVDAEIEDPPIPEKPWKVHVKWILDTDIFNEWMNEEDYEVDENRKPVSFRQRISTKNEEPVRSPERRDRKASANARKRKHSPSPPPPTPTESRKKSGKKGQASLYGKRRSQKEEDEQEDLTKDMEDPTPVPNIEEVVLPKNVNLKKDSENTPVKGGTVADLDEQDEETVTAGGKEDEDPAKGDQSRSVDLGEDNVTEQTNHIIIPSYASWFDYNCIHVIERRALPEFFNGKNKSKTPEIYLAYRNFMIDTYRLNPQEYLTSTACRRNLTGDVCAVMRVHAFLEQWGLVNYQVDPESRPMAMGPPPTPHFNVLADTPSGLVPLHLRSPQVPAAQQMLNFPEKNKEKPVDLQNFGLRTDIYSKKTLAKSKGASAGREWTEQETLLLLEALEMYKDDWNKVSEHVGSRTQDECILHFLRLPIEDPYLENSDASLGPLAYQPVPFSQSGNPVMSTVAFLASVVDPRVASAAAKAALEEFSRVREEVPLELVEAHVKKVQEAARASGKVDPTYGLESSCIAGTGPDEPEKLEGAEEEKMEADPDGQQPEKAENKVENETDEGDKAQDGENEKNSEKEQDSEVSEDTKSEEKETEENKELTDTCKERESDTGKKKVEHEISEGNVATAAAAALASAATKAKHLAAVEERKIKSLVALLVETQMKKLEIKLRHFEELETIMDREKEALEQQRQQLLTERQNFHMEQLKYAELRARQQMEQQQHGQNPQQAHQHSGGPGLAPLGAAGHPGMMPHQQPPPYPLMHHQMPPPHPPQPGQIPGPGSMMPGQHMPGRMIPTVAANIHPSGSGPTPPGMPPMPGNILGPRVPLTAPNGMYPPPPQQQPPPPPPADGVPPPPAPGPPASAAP
UniProt Q92826: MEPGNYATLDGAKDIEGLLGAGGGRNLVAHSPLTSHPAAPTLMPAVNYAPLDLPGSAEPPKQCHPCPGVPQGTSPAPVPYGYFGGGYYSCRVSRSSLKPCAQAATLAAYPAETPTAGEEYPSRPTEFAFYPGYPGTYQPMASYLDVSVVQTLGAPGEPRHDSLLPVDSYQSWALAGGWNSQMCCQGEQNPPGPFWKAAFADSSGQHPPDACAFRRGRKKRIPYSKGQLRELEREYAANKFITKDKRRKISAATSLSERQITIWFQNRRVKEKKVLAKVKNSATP
UniProt Q14839: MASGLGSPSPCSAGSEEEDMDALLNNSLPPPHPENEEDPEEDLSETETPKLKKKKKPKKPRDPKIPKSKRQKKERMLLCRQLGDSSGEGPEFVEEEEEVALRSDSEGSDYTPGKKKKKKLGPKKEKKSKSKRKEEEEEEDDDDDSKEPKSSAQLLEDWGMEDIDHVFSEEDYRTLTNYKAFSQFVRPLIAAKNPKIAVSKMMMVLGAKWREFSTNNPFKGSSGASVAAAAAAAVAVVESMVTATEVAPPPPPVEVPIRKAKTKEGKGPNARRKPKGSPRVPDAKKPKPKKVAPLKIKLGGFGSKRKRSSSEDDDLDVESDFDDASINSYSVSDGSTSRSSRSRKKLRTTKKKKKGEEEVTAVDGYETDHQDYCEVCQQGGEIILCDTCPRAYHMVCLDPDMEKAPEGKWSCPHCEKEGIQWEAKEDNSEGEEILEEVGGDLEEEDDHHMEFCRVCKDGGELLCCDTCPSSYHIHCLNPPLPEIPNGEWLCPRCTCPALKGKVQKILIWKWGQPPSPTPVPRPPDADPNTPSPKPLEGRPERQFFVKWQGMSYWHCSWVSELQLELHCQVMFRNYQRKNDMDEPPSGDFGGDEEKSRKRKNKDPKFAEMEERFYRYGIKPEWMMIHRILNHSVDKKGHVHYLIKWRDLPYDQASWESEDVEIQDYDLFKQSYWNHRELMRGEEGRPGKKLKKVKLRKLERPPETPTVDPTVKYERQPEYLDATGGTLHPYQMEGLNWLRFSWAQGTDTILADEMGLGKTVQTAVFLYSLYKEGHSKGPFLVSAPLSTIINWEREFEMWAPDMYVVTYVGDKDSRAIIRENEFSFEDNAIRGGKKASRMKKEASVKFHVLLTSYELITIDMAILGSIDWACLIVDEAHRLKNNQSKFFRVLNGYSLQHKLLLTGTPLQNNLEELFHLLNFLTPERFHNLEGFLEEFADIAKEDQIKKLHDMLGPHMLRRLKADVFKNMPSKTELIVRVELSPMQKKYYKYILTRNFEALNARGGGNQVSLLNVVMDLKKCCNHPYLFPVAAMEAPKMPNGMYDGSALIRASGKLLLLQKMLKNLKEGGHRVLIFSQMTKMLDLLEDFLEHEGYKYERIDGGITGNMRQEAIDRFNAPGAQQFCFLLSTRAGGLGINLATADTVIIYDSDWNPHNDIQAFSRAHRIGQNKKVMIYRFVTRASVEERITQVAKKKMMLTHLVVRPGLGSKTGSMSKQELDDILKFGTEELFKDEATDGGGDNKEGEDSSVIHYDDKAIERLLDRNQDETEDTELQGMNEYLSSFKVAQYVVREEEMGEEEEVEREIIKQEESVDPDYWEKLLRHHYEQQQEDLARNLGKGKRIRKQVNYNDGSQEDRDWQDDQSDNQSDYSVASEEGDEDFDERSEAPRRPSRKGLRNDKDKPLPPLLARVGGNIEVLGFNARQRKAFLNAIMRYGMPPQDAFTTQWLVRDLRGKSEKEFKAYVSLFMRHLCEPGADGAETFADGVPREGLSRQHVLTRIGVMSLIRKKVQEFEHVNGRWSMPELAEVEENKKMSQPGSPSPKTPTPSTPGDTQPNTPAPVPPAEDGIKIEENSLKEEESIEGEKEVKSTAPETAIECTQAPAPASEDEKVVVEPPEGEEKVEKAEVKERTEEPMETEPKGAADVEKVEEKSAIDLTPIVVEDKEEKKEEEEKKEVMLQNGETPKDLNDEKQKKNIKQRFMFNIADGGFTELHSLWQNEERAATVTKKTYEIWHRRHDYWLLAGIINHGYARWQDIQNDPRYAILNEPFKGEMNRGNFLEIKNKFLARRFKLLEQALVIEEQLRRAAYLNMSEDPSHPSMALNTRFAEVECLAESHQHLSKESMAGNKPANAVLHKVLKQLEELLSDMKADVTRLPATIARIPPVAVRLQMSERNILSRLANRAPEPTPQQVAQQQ

No constants are given. Whether binding was seen depends on the method and setting. In cells and extracts the contact can be indirect. Some results given as binding are weak or reduced against the parent protein; the word gives no strength.

In assay [1] the target is BAF155 (SMARCC1), core SWI/SNF subunit (human (endogenous in NCI-H660 and LNCaP-AR)) (UniProt Q92922). Put plainly: co-IP; co-IP with anti-BAF155 antibody (rabbit IgG isotype control) from nuclear fraction of LNCaP-AR cells, overnight 4 °C, Protein G magnetic beads; immunoblotting.
For assay [2] the target is unchanged. Put plainly: co-IP; co-IP with anti-BAF155 antibody (rabbit IgG isotype control) from nuclear fraction of NCI-H660 cells, overnight 4 °C, Protein G magnetic beads; immunoblotting. A general note: Immunoblotting shows a protein as a band on a membrane.

For the molecule HOXB13 (from UniProt Q92826 1-284), the binding entry in assay [1] is “binds”.

For CHD4 (from UniProt Q14839 1-1912), the binding entry in assay [1] is recorded as “no binding (condition: in LNCaP-AR (adenocarcinoma) cells)”; in assay [2], “binds”.

B1: transcription factor NK2 homeobox 1 (NKX2.1/TTF-1) (protein, UniProt P43699 1-371)
chain: MSMSPKHTTPFSVSDILSPLEESYKKVGMEGGGLGAPLAAYRQGQAAPPTAAMQQHAVGHHGAVTAAYHMTAAGVPQLSHSAVGGYCNGNLGNMSELPPYQDTMRNSASGPGWYGANPDPRFPAISRFMGPASGMNMSGMGGLGSLGDVSKNMAPLPSAPRRKRRVLFSQAQVYELERRFKQQKYLSAPEREHLASMIHLTPTQVKIWFQNHRYKMKRQAKDKAAQQQLQQDSGGGGGGGGTGCPQQQQAQQQSPRRVAVPVLVKDGKPCQAGAPAPGAASLQGHAQQQAQHQAQAAQAAAAAISVGSGGAGLGAHPGHQPGSAGQSPDLAHHAASPAALQGQVSSLSHLNSSGSDYGTMSCSTLLYGRTW
In the case of B1, the binding entry in assay [1] is “no binding (condition: in LNCaP-AR (adenocarcinoma) cells)”; in assay [2], “binds”.

B2: growth factor VGF (protein, UniProt O15240 23-615)
chain: APPGRPEAQPPPLSSEHKEPVAGDAVPGPKDGSAPEVRGARNSEPQDEGELFQGVDPRALAAVLLQALDRPASPPAPSGSQQGPEEEAAEALLTETVRSQTHSLPAPESPEPAAPPRPQTPENGPEASDPSEELEALASLLQELRDFSPSSAKRQQETAAAETETRTHTLTRVNLESPGPERVWRASWGEFQARVPERAPLPPPAPSQFQARMPDSGPLPETHKFGEGVSSPKTHLGEALAPLSKAYQGVAAPFPKARRPESALLGGSEAGERLLQQGLAQVEAGRRQAEATRQAAAQEERLADLASDLLLQYLLQGGARQRGLGGRGLQEAAEERESAREEEEAEQERRGGEERVGEEDEEAAEAEAEAEEAERARQNALLFAEEEDGEAGAEDKRSQEETPGHRRKEAEGTEEGGEEEDDEEMDPQTIDSLIELSTKLHLPADDVVSIIEEVEEKRKRKKNAPPEPVPPPRAAPAPTHVRSPQPPPPAPAPARDELPDWNEVLPPWDREEDEVYPPGPYHPFPNYIRPRTLQPPSALRRRHYHHALPPSRHYPGREAQARRAQEEAEAEERRLQEQEELENYIEHVLLRRP
For B2, the binding entry in assay [1] is “no binding (condition: in LNCaP-AR (adenocarcinoma) cells)”; in assay [2], “binds”.
